Among the data in PMC12808100, “The non-catalytic DNA polymerase ε subunit is an NPF motif recognition protein” (Nature Communications, 2025) are binding values, retold here.

In experiment [1] the target is His6-AviTag-MBP-TEV-POLE2 (human) (UniProt P56282). Nature of the experiment: native holdup (nHU) with mass spectrometry; single point; biotinylated His6-avi-MBP-POLE2 bait on streptavidin resin at 26 μM, His6-avi-MBP as control; Jurkat extract, 4 °C, 2 h; label-free MS of the supernatant; apparent; only the target purified.
Experiment [2] has as its target C-terminally MAC3-tagged POLE2, wild type (human) (UniProt P56282). Nature of the experiment: proximity labelling; C-terminally MAC3-tagged (ultraID) POLE2 variants in Flp-In T-REx 293 cells, tetracycline 24 h, 50 μM biotin 3 h; Strep-Tactin purification, mass spectrometry, SAINTexpress against GFP control.
Experiment [3] deals with C-terminally MAC3-tagged POLE2 Y311F (human) (UniProt P56282). The description is as above.
Experiment [4] concerns the target C-terminally MAC3-tagged POLE2 S522A (human) (UniProt P56282). The experiment is described as above.
In experiment [5] the target is C-terminally MAC3-tagged POLE2 E520A (human) (UniProt P56282). The experiment is described as above.

These are yes or no findings as the source states them, for the method shown. In cells and extracts the contact can be indirect. These calls come from enrichment with a bait or labelling near it, and not all partners need be listed. For some assays here: A no says only that the protein was not detected with the bait. Tags and fused reporters may be left off the sequences shown.

B1: WDHD1, endogenous (protein, UniProt O75717 1-1129)
chain: MPATRKPMRYGHTEGHTEVCFDDSGSFIVTCGSDGDVRIWEDLDDDDPKFINVGEKAYSCALKSGKLVTAVSNNTIQVHTFPEGVPDGILTRFTTNANHVVFNGDGTKIAAGSSDFLVKIVDVMDSSQQKTFRGHDAPVLSLSFDPKDIFLASASCDGSVRVWQISDQTCAISWPLLQKCNDVINAKSICRLAWQPKSGKLLAIPVEKSVKLYRRESWSHQFDLSDNFISQTLNIVTWSPCGQYLAAGSINGLIIVWNVETKDCMERVKHEKGYAICGLAWHPTCGRISYTDAEGNLGLLENVCDPSGKTSSSKVSSRVEKDYNDLFDGDDMSNAGDFLNDNAVEIPSFSKGIINDDEDDEDLMMASGRPRQRSHILEDDENSVDISMLKTGSSLLKEEEEDGQEGSIHNLPLVTSQRPFYDGPMPTPRQKPFQSGSTPLHLTHRFMVWNSIGIIRCYNDEQDNAIDVEFHDTSIHHATHLSNTLNYTIADLSHEAILLACESTDELASKLHCLHFSSWDSSKEWIIDLPQNEDIEAICLGQGWAAAATSALLLRLFTIGGVQKEVFSLAGPVVSMAGHGEQLFIVYHRGTGFDGDQCLGVQLLELGKKKKQILHGDPLPLTRKSYLAWIGFSAEGTPCYVDSEGIVRMLNRGLGNTWTPICNTREHCKGKSDHYWVVGIHENPQQLRCIPCKGSRFPPTLPRPAVAILSFKLPYCQIATEKGQMEEQFWRSVIFHNHLDYLAKNGYEYEESTKNQATKEQQELLMKMLALSCKLEREFRCVELADLMTQNAVNLAIKYASRSRKLILAQKLSELAVEKAAELTATQVEEEEEEEDFRKKLNAGYSNTATEWSQPRFRNQVEEDAEDSGEADDEEKPEIHKPGQNSFSKSTNSSDVSAKSGAVTFSSQGRVNPFKVSASSKEPAMSMNSARSTNILDNMGKSSKKSTALSRTTNNEKSPIIKPLIPKPKPKQASAASYFQKRNSQTNKTEEVKEENLKNVLSETPAICPPQNTENQRPKTGFQMWLEENRSNILSDNPDFSDEADIIKEGMIRFRVLSTEERKVWANKAKGETASEGTEAKKRKRVVDESDETENQEEKAKENLNLSKKQKPLDFSTNQKLSAFAFKQE
B1: the binding entry in experiment [1], in experiment [2] and in experiment [3] was “binds” each time.

B2: GLB1, endogenous (protein, UniProt P16278 29-677)
chain: QRMFEIDYSRDSFLKDGQPFRYISGSIHYSRVPRFYWKDRLLKMKMAGLNAIQTYVPWNFHEPWPGQYQFSEDHDVEYFLRLAHELGLLVILRPGPYICAEWEMGGLPAWLLEKESILLRSSDPDYLAAVDKWLGVLLPKMKPLLYQNGGPVITVQVENEYGSYFACDFDYLRFLQKRFRHHLGDDVVLFTTDGAHKTFLKCGALQGLYTTVDFGTGSNITDAFLSQRKCEPKGPLINSEFYTGWLDHWGQPHSTIKTEAVASSLYDILARGASVNLYMFIGGTNFAYWNGANSPYAAQPTSYDYDAPLSEAGDLTEKYFALRNIIQKFEKVPEGPIPPSTPKFAYGKVTLEKLKTVGAALDILCPSGPIKSLYPLTFIQVKQHYGFVLYRTTLPQDCSNPAPLSSPLNGVHDRAYVAVDGIPQGVLERNNVITLNITGKAGATLDLLVENMGRVNYGAYINDFKGLVSNLTLSSNILTDWTIFPLDTEDAVRSHLGGWGHRDSGHHDEAWAHNSSNYTLPAFYMGNFSIPSGIPDLPQDTFIQFPGWTKGQVWINGFNLGRYWPARGPQLTLFVPQHILMTSAPNTITVLELEWAPCSSDDPELCAVTFVDRPVIGSSVTYDHPSKPVEKRLMPPPPQKNKDSWLDHV
For the molecule B2, the binding result in experiment [1] and in experiment [2] was “binds” throughout.

B3: Protein downstream neighbor of Son (DONSON), endogenous (protein, UniProt Q9NYP3 1-566)
chain: MALSVPGYSPGFRKPPEVVRLRRKRARSRGAAASPPRELTEPAARRAALVAGLPLRPFPAAGGRGGGSGGGPAAARRNPFARLDNRPRVAAEPPDGPAREQPEAPVPFLDSNQENDLLWEEKFPERTTVTELPQTSHVSFSEPDIPSSKSTELPVDWSIKTRLLFTSSQPFTWADHLKAQEEAQGLVQHCRATEVTLPKSIQDPKLSSELRCTFQQSLIYWLHPALSWLPLFPRIGADRKMAGKTSPWSNDATLQHVLMSDWSVSFTSLYNLLKTKLCPYFYVCTYQFTVLFRAAGLAGSDLITALISPTTRGLREAMRNEGIEFSLPLIKESGHKKETASGTSLGYGEEQAISDEDEEESFSWLEEMGVQDKIKKPDILSIKLRKEKHEVQMDHRPESVVLVKGINTFTLLNFLINSKSLVATSGPQAGLPPTLLSPVAFRGATMQMLKARSVNVKTQALSGYRDQFSLEITGPIMPHSLHSLTMLLKSSQSGSFSAVLYPHEPTAVFNICLQMDKVLDMEVVHKELTNCGLHPNTLEQLSQIPLLGKSSLRNVVLRDYIYNWRS
Turning to B3, the binding result in experiment [2] was “binds”; in experiment [4], “no binding”; in experiment [3] it was “no binding”; in experiment [5] it was “no binding”.

B4: PYCR1, endogenous (protein, UniProt P32322 1-319)
chain: MSVGFIGAGQLAFALAKGFTAAGVLAAHKIMASSPDMDLATVSALRKMGVKLTPHNKETVQHSDVLFLAVKPHIIPFILDEIGADIEDRHIVVSCAAGVTISSIEKKLSAFRPAPRVIRCMTNTPVVVREGATVYATGTHAQVEDGRLMEQLLSSVGFCTEVEEDLIDAVTGLSGSGPAYAFTALDALADGGVKMGLPRRLAVRLGAQALLGAAKMLLHSEQHPGQLKDNVSSPGGATIHALHVLESGGFRSLLINAVEASCIRTRELQSMADQEQVSPAAIKKTILDKVKLDSPAGTALSPSGHTKLLPRSLAPAGKD
On to B4, for which the binding entry in experiment [1] and in experiment [2] was “binds” in each case.
